Measurements taken from patent US8426179B2, “Synthetic peptide and peptide conjugates and related tissue coupling methods via transglutaminase enzyme” (priority 2007, dated 2013).
Not every detail of the peptide structures is certain; ends, links or a residue may be inferred. Residues, ends and D or L forms follow the SMILES beside them. *: point of attachment. X1 = C[C@]12CCC(=O)C=C1CC[C@@H]1[C@@H]2[C@@H](O)C[C@@]2(C)[C@H]1CC[C@]2(O)C(=O)COC(=O)CCC(=O)*

Columns and labels:
articular cartilage = assay: Coupling of peptide functionalized hydrocortisone to cartilage, anti-hydrocortisone staining; type: biochemical; conditions: with tTG
[1] = Hydrolysis of the hydrocortisone prodrugs in solution (buffers); type: physicochemical; conditions: for T50%: 1.0 mM
Experimental: This solution also contained 2 mM 6α-methyl prednisolone as an internal standard. The samples were then stored at −20° C. until analyzed with RP-HPLC and eluted with a linear gradient of 24-55% acetonitrile in water with 0.1% TFA. The amount of hydrocortisone hydrolyzed from the prodrug was determined by comparing its peak area to that of 6α-methyl prednisolone. […] Thirty microliter samples were collected at 10, 20, 30, and 60 minutes and analyzed as previously described.

[2] = tested on: articular surface of cartilage; assay: Coupling of hydrocortisone prodrugs to the articular surface of cartilage via tTG; type: biochemical, bovine; conditions: 1.0 mM, 1 U/mL tTG, up to 120 minutes

For `C[C@]12CCC(=O)C=C1CC[C@@H]1[C@@H]2[C@@H](O)C[C@@]2(C)[C@H]1CC[C@]2(O)C(=O)COC(=O)CCC(=O)NCC(=O)N[C@@H](Cc1ccccc1)C(=O)N[C@@H](CCCCN)C(=O)NCC(=O)O` [TRIP-C, Hydrocortisone-GFKG prodrug] (X1-GFKG-OH), which “coupling to tissue surface (anti-hydrocortisone antibody)” value (articular cartilage) is on record?
Its value is “specific coupling”.

What about the T50% ([1]; Buffer 1 (PBS, pH 7.4), 4° C.) of the same molecule?
Its T50% is 3465 min.

What about the T50% ([1]; Buffer 1 (PBS, pH 7.4), 23° C.) of the same molecule?
The T50% was 198 min.

What about the T50% ([1]; Buffer 2 (PBS, pH 4.0), 4° C.) of the same molecule?
The T50% was 115500 min.

What about the T50% ([1]; Buffer 3 (10 mM CaCl2, 40 mM HEPES, 100 mM NaCl, pH 7.4), 37° C.) of the same molecule?
The T50% was 27.6 min.

What about the “increase in T50% of hydrolysis by a factor” value ([1]; pH from 7.4 to 4.0 at 4° C.) of the same molecule?
Its value is 33.

And the “time dependency of coupling to cartilage” value [2]?
Its value is “gradual increase in enzyme catalyzed prodrug coupling to the tissue over a period of 120 minutes”.
